# Laboratory results reported in publication PMC4051630, “A Comparison of Protein Kinases Inhibitor Screening Methods Using Both Enzymatic Activity and Binding Affinity Determination” (PLoS ONE, 2014).
# Tested on: protein kinases
# Test: DSF screen, observations over the kinase panel
# Type: binding
# Settings: over all kinases screened, 10 µM inhibitor
row,Structure (SMILES),Behaviour in the DSF screen
1,O=C1NC(=O)c2c1c1c3ccccc3n3c1c1c2c2ccccc2n1C1CCC3O1 [SB 218078],interfere with the fluorescence from the dye
2,"CCCCCCCCCCCCCCCCn1cc[n+](Cc2ccccc2)c1C.[I-] [eEF-2 Kinase Inhibitor, NH125]",only produced negative Tm shifts
